{"source": "patent US20240316118A1", "about": "“ANTIVIRAL NASAL SPRAY FLAVONOIDS?BEE PROPOLIS” (priority 2022, published 2024)", "origin": "cited, not measured here", "key": {"[1]": {"system": "TLR3, TLR4, TLR7 pathways", "settings": "H1N1 influenza, Ref. [38]"}, "HSV-1 virions": {"system": "HSV-1 virions", "settings": "HSV-1, Ref. [42]"}, "HAV virions": {"system": "HAV virions", "settings": "Ref. [42]"}}, "note": "At least one compound was matched to its structure with a doubt left."}
{"molecule": "O=c1cc(-c2ccc(O)cc2)oc2c([C@@H]3O[C@H](CO)[C@@H](O)[C@H](O)[C@H]3O)c(O)cc(O)c12", "note": "[Vitexin]", "values": [{"measurement": "Molecular Mechanisms: IFN-β levels", "setting": "[1]", "result": "Increase of IFN-β levels"}, {"measurement": "Molecular Mechanisms: inflammatory injury", "setting": "[1]", "result": "Decrease of"}, {"measurement": "Molecular Mechanisms: viral replication", "setting": "HSV-1 virions", "result": "Inhibition of viral"}, {"measurement": "Molecular Mechanisms: viral replication", "setting": "HAV virions", "result": "Inhibition of viral"}]}
